# Results: PubChem BioAssay AID1688 (National Center for Advancing Translational Sciences (NCATS), 2009)
# Among all 220,000 compounds or so, about 2,400 (1.1%) were called active. Inconclusive results, whose numbers are uncertain, are shown with a selection of clear calls. Calls follow the shape of the dose curve; as a rule, active = well fitted inhibition curve with a large enough effect; inconclusive = small, poorly fitted or top-dose-only effect, or effect the other way; inactive = no such curve, though single readings can be large or run the other way. A potency beside an inconclusive call is a rough fit, not a confirmed value.
# Experiment: qHTS Multiplex Assay to Identify Dual Action Probes in a Cell Model of Huntington: Aggregate Formation (GFP); also: nearly all actives have a fitted effect of over 60% in size
# Conditions: PC12 HttQ103-GFP aggregates, Acumen cytometry, 40 h; activity change, negative = inhibition: at 46.1 µM (top of the series) unless noted
# Procedure, shortened: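 Using laser scanning cytometry, GFP-positive aggregates were counted after lysis of PC12 cells induced with 100 nM tebufenozide to express HTT exon 1 Q103–GFP. Compounds were tested in titration.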
# % is scaled to controls: 0 for no effect and ±100 for the full control effect; potency is read from the fitted curve at half-maximal effect.
Compound,Potency,"activity change, negative = inhibition"
CCN(CC)C(=O)C1CCCN(Cc2ccc(N(C)C)cc2)C1 (centres undefined),"inconclusive: 1.78 µM [inhibitor, partial curve]",–
CCCNC(=O)COC(=O)c1[nH]c(C)c(C(=O)OCC)c1C,"inconclusive: 12.6 µM [inhibitor, single point]",–
O=C(Nc1ccc2c(c1)OCCO2)c1cc2sccc2n1Cc1ccc(F)cc1,"inconclusive: 35.5 µM [inhibitor, single point]",–
O=C(CN(c1ccc2c(c1)OCCO2)S(=O)(=O)c1ccccc1)N1CCN(Cc2ccccc2)CC1,"inconclusive: 25.1 µM [inhibitor, partial curve]",–
Cc1cc(C)c(C)c(S(=O)(=O)N2CCN(C(=O)c3cc(=O)[nH]c4ccccc34)CC2)c1C,"inconclusive: 11.2 µM [inhibitor, single point]",–
Cc1nc(NC(C)C)c2oc3ccccc3c2n1,"inconclusive: 11.2 µM [inhibitor, single point]",–
CCCC(=O)Nc1nc2ccc3nc(C)sc3c2s1,"inconclusive: 0.562 µM [inhibitor, full curve, poor fit]",–
CCOC(=O)N1CCN(C(=O)C2CCN(S(C)(=O)=O)CC2)CC1,"inconclusive: 1.41 µM [inhibitor, partial curve]",–
CN(CCCC[C@H](CNCc1ccc(-c2ccccc2)cc1)N1C[C@H](c2ccccc2)N(CCc2ccc(Cl)c(Cl)c2)C(=O)C1=O)Cc1ccc(-c2ccccc2)cc1,"inconclusive: 5.01 µM [activator, single point]",–
CC1CCN(C(=O)c2cc(-c3ccc(Cl)c(Cl)c3)on2)CC1,inactive,–
O=C(CSc1nc2ccccc2c(=O)n1-c1ccccc1)N1CCc2ccccc21,"inconclusive: 35.5 µM [activator, single point]",–
C=CCSc1nnc(-c2cc3c(-c4ccccc4)nn(C)c3s2)n1C,inactive,–
CCC(C(=O)Nc1nccs1)(C(F)(F)F)C(F)(F)F,"inconclusive: 35.5 µM [inhibitor, single point]",–
Oc1ccccc1Cn1c(-c2ccccc2O)nc2ccccc21,active: 25.1 µM,–
O=C(CC(O)(C(F)(F)F)C(F)(F)F)Nc1ccc(Cl)c(Cl)c1,active: 5.01 µM,–
COc1cc2c(cc1OC)C(C)N(C(=O)c1cc3ccccc3o1)CC2 (centres undefined),"inconclusive: 15.8 µM [inhibitor, single point]",–
CN(Cc1cccnc1)C(=O)CC1C(=O)NCCN1CC(c1ccccc1)c1ccccc1 (centres undefined),–,inactive: 10.1% [at 9.22 µM]
Cc1ccc(C(=O)c2coc3ccc(O)c(Cl)c23)cc1,"inconclusive: 28.2 µM [inhibitor, single point]",–
CCCc1noc2c1C(c1cc(Br)ccc1F)C(C#N)=C(N)N2 (centres undefined),inactive,–
COc1cc2ncc(S(=O)(=O)c3ccccc3)c(N3CCC4(CC3)OCCO4)c2cc1OC,"inconclusive: 28.2 µM [inhibitor, single point]",–
CCCCNC(=O)COC(=O)CNC(=O)c1cc(Cl)cc([N+](=O)[O-])c1,inactive,–
O=C(c1ccccc1C(=O)N1CCN(c2ccccc2)CC1)N1CCN(c2ccccc2)CC1,inactive,–
Cc1ccc(S(=O)(=O)Nc2nc3ccccc3nc2N2CCN(c3ccccc3F)CC2)cc1,"inconclusive: 35.5 µM [inhibitor, single point]",–

Compound,Potency,"activity change, negative = inhibition"
Cc1ccc(-c2csc3ncnc(N4CCN(C(=O)c5ccccc5)CC4)c23)cc1,"inconclusive: 35.5 µM [inhibitor, single point]",–
Cc1ccc(SCC(=O)c2c(C)nc3ccccn23)cc1,active: 14.1 µM,–
COc1ccc(C(=O)N2CCCC(c3ccccc3)=N2)cc1,inactive,–
COc1ccc(C(=O)COC(=O)CNS(=O)(=O)c2ccc(C)cc2)cc1,active: 25.1 µM,–
CCOC(=O)c1ccccc1NS(=O)(=O)c1ccc(OCC)cc1,active: 11.2 µM,–
COCCOc1ccc(C(F)(F)F)cc1NC(=O)c1ccc(C(F)(F)F)cc1,"inconclusive: 5.62 µM [inhibitor, single point]",–
O=C(/C=C/c1ccc(F)cc1)NCCC1=CCCCC1,inactive,–
CCn1ncc(Br)c1C(=O)Nc1ccc(F)cc1F,inactive,–
COCCCn1c(SCC(=O)c2ccccc2)nc2ccccc2c1=O,inactive,–
NNc1ccc(Cc2ccc(Cl)cc2Cl)nn1,"inconclusive: 35.5 µM [inhibitor, single point]",–
Cc1ccc(C(C(=O)NCC2CCCO2)N(Cc2ccccc2)C(=O)c2ccc(-c3ccccc3)[nH]2)o1 (centres undefined),active: 0.126 µM,–
Cc1nn(C)c(C(=O)NNC(=S)NCc2ccco2)c1Cl,inactive,–
CN(C)c1ccc(-n2cccc2/C=C/[N+](=O)[O-])cc1,active: 25.1 µM,–
O/C(=C\c1nc2ccccc2nc1/C=C(\O)c1ccccc1)c1ccccc1,"inconclusive: 3.16 µM [activator, single point]",–
COc1ccc(N(C(=O)Cn2nnc(-c3ccc(Cl)cc3)n2)C(C(=O)NCC2CCCO2)c2ccncc2)cc1 (centres undefined),"inconclusive: 4.47 µM [activator, single point]",–
O=C(Nc1nnc(SCC(=O)N2CCOCC2)s1)c1ccccc1,"inconclusive: 35.5 µM [activator, single point]",–
COC(CN(C(=O)CCl)C(C(=O)NC1CCCCC1)c1ccccc1C)OC (centres undefined),"inconclusive: 35.5 µM [inhibitor, single point]",–
Cc1c(C2(O)C(=O)Nc3ccc(F)cc32)c(=O)n(-c2ccccc2)n1C (centres undefined),"inconclusive: 0.141 µM [inhibitor, partial curve, poor fit]",–
CN(C)c1cc[n+](CC(=O)Nc2cc(C(F)(F)F)ccc2Cl)cc1,"inconclusive: 2.82 µM [inhibitor, single point]",–
Cc1ccc(SCc2nc3ccccc3n2CC(=O)Nc2ccccc2)cc1,"inconclusive: 35.5 µM [inhibitor, single point]",–
Cc1ccc(C(=O)/C=C\C(=O)c2ccc(C)cc2)cc1,"inconclusive: 5.62 µM [activator, single point]",–
CC(C)[C@H](NC(=O)c1ccccc1)C(=O)OCC(=O)/C=C1/N(C)c2ccccc2C1(C)C,"inconclusive: 35.5 µM [inhibitor, single point]",–
CN(C)C=NC(=O)/C(C#N)=C1\CCc2ccccc2N1,"inconclusive: 5.62 µM [activator, single point]",–

# Some of these compounds in order of length of the SMILES, falling.
Compound,Potency,"activity change, negative = inhibition"
O/C(=C\c1nc2ccccc2nc1/C=C(\O)c1ccccc1)c1ccccc1,"inconclusive: 3.16 µM [activator, single point]",–
COC(CN(C(=O)CCl)C(C(=O)NC1CCCCC1)c1ccccc1C)OC (centres undefined),"inconclusive: 35.5 µM [inhibitor, single point]",–
CN(C)c1ccc(-n2cccc2/C=C/[N+](=O)[O-])cc1,active: 25.1 µM,–
Cc1ccc(SCC(=O)c2c(C)nc3ccccn23)cc1,active: 14.1 µM,–

# Next structures follow:

Compound,Potency,"activity change, negative = inhibition"
CCCCCCSc1nnc2[nH]c(=O)cc(N)n12,inactive,–
Fc1ccc(Oc2cnc3ccccc3n2)cc1,"inconclusive: 35.5 µM [inhibitor, single point]",–
CCn1cnc2scc(-c3ccccc3)c2c1=O,inactive,–
CC(NC(=S)Nc1ccccc1Cl)C(c1ccccc1)N1CCOCC1 (centres undefined),"inconclusive: 35.5 µM [activator, single point]",–
CCC(=O)NC(c1cccs1)c1cc([N+](=O)[O-])c2cccnc2c1O (centres undefined),"inconclusive: 3.16 µM [inhibitor, partial curve]",–
COc1ccc2c(c1)C(=O)[C@H](O)[C@@H](c1ccc(OC)c(Br)c1)O2,"inconclusive: 2.51 µM [inhibitor, full curve]",–
Cc1ccc(S(=O)(=O)N2CCN(c3nc(C)nc4sc5c(c34)CCC(C)C5)CC2)cc1 (centres undefined),inactive,–
CCCCCCCCCCCCCCCCOCCOCCOCCOCCOCCOCCOCCOCCOCCOCCOCCOCCOCCOCCOCCOCCOCCOCCOCCOCCO,"inconclusive: 15.8 µM [inhibitor, full curve, poor fit]",–
COc1ccc(Cc2[nH]n3c(=O)cc(C(C)C)nc3c2-c2ccccc2)cc1,"inconclusive: 2.82 µM [inhibitor, full curve]",–
COCCNC(=O)c1nc2c(nnn2Cc2cc(C)ccc2C)c(=O)[nH]1,inactive,–
COC(=O)c1ccc(=O)c2nc3/c(=C/O)c(O)cc(=O)c3[nH]c12,–,inactive: 0.905% [at 9.22 µM]
Cc1nc(-c2ccc(S(=O)(=O)N3CCCCCC3)cc2)cs1,"inconclusive: 22.4 µM [inhibitor, single point]",–
O=C(CCNS(=O)(=O)c1ccc(Br)s1)Nc1ccc(Cl)cc1,"inconclusive: 1.26 µM [activator, partial curve]",–
CS(=O)(=O)CCC(C(=O)OCC(=O)c1ccc(Cl)cc1)N1C(=O)c2ccccc2C1=O (centres undefined),inactive,–
COc1cc(/C=C/C(=O)OCC(=O)c2c[nH]c3ccccc23)ccc1OC(F)F,"inconclusive: 3.55 µM [inhibitor, partial curve]",–
CCCCNc1oc(-c2cccs2)nc1S(=O)(=O)c1ccccc1,"inconclusive: 31.6 µM [inhibitor, single point]",–
COc1cc(Cl)c(C)cc1NC(=O)COC(=O)c1cc(SC)ccc1Cl,"inconclusive: 4.47 µM [inhibitor, single point]",–
CC(=O)c1c(C)[nH]c(C(=O)NCCC2=CCCCC2)c1C,"inconclusive: 14.1 µM [inhibitor, single point]",–
CN(C(=O)c1cccc(COc2ccc(Cl)cc2Cl)c1)c1ccccc1,"inconclusive: 35.5 µM [inhibitor, single point]",–
CNC(=O)NC(=O)COC(=O)c1ccc(-n2c(C)ccc2C)cc1,"inconclusive: 12.6 µM [activator, partial curve]",–
O=C(CNC(=O)c1ccncc1)N/N=C/c1cc(Br)ccc1O,"inconclusive: 0.112 µM [inhibitor, full curve, poor fit]",–
Cc1cc(C(=O)CCl)c(C)n1CC1COc2ccccc2O1 (centres undefined),"inconclusive: 15.8 µM [inhibitor, single point]",–
CCOC(=O)c1sc(=S)n(C)c1NC(=O)c1cccc(Br)c1,–,inactive: 27.2% [at 9.22 µM]
